# Publication doi:10.1101/2023.09.21.558797
# Sequences of proteins named here, by UniProt entry; tags and fusion partners are left off. A change or cut given only in a name is not applied to a line headed by its entry. Residues count along the entry.
# UniProt P21575, residues 746-864: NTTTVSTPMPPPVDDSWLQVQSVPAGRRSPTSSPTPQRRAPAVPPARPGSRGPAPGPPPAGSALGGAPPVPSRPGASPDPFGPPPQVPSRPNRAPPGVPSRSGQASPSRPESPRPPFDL
# UniProt O35180: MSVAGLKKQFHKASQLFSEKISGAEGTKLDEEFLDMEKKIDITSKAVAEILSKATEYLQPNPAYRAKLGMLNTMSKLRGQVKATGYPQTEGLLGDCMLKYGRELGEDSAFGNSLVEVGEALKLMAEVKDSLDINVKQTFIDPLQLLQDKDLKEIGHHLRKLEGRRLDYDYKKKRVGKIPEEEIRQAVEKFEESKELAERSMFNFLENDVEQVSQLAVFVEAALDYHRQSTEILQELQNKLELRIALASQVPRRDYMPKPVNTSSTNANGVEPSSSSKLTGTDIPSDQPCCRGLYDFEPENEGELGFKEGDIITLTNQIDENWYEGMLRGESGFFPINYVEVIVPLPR
# Results are given in words; binding and its absence hold for the method and conditions named. In cells and extracts the contact can be indirect. Here binding means that the protein was enriched with, or labelled near, the bait; the list need not be complete.
# Target: GST-Dyn1xA-PRR (full-length proline-rich region of Dynamin 1 splice variant xA, 746-864) (rat) (UniProt P21575)
# Assay: affinity purification with mass spectrometry; GST-Dyn1-PRR pull-down from rat synaptosomal lysate; 40 kDa Coomassie band excised, LC-MS/MS and selective reaction monitoring (SRM) of the three Endophilin A isoforms; only the target purified
substance,measurement,value
"Endophilin A3 (endogenous, rat brain synaptosomes) (from UniProt O35180 1-347)",binding,binds
